Test results: paper PMC2424011
These are yes or no findings as the source states them, for the method shown. A result given as binding can be weak or reduced; the word gives no strength. Sequences can lack the tags named with a protein. For part of these data: In cells and extracts the contact can be indirect. Blank lines part the entries; values can stand above or below the molecule they belong to.

Columns and labels:
[1] = biological target: T1, sFRP-3-HA protein (mouse) (UniProt P97401); experiment: cross-linking + co-IP; 1 µg purified sFRP-3-HA with 1 µg recEGF in PBS, 2 hours at 4°C; 5 mM DTSSP 1 hr at 4°C, quenched with 20 mM Tris pH 7.5; immunoprecipitated with anti-HA affinity matrix; non-reducing SDS-PAGE, blot with anti-EGF; both purified
T1 sequence: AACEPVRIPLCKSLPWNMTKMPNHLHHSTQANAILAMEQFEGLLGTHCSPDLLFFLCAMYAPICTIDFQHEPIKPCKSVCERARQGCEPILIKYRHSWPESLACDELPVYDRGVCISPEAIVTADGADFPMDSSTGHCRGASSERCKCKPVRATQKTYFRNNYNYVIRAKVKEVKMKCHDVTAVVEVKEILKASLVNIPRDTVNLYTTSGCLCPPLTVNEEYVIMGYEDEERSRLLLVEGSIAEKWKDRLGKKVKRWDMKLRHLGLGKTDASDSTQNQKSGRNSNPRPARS

[2] = biological target: T1, sFRP-3-HA protein (mouse); experiment: cross-linking; purified sFRP-3-HA incubated 1 hr at 4°C with increasing amount of recEGF, DTSSP cross-linked, Western blot with anti-HA; both purified
[3] = biological target: recombinant mouse EGF (mouse); experiment: pull-down; heparin-immobilized acrylic beads saturated overnight at 4°C with 5 µg growth factor in PBS 0.2% BSA; incubated 2 hours at room temperature with 5-50 µl sFRP-3-HA conditioned medium; 3 washes in PBS; blot with anti-HA; only the target purified

binding [1]: binds | binding [2]: binds
Molecule: recombinant mouse EGF (ligand)

binding [3]: binds
B1: sFRP-3-HA protein (protein, UniProt P97401 33-323)
chain: T1 sequence
